SMILES strings stand for the structures. The list does not hold the whole screen: it is rich in T/C values a quarter to a half above the control, in often repeated tests (any T/C) and in doses without a T/C. Further doses and runs are listed elsewhere. T/C: endpoint of the treated group in % of that of the vehicle group. Schedules are NCI's codes, taken here to give the interval after Q, in days (D) or hours (H), and the number of doses after X. Some T/C values are followed by the survivors on the day toxicity was checked, most often the fifth; where none is given, no animal had died by that day. Some entries hold several experiments; the results are listed from low to high. Marks such as (2×) count equal records among those shown. Some doses have a count of surviving animals in place of a T/C: the source files T/C as zero there, which appears to mark a toxic dose or a test without result, not a measured value. Survivors were counted at the toxicity check, usually on the fifth day, unless a day is given; later deaths do not show.

The test relates to BDF1 mice, Adenocarcinoma 755 s.c., tumor weight T/C. The test is described as follows: NCI In Vivo Anticancer Drug Screen. Data for tumor model Adenocarcinoma 755 (subcutaneous) in B6D2F1 (BDF1) mice. Particulars: T/C endpoint: mean tumor weight, higher T/C = larger tumour; for T/C: evaluated on day 12. The method, boiled down: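 Values express treated (T) relative to vehicle-dosed control (C) animals, based on survival or tumour size measured after compound treatment of mice bearing a transplanted tumour.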

Setting [1] is: dose: 1.0 mg/kg/injection, schedule: Q01DX011 (ip), vehicle: methylcellulose (MC).
[2] abbreviates: dose: 2.0 mg/kg/injection, schedule: Q01DX011 (ip), vehicle: methylcellulose (MC).
The mark [3] stands for this setting: dose: 2.5 mg/kg/injection, schedule: Q01DX011 (ip), vehicle: methylcellulose (MC).

For the molecule `O=C(N[C@H](CO)[C@H](O)c1ccc([N+](=O)[O-])cc1)C(Cl)Cl`, the T/C is 141 % of control (dose: 47.93 mg/kg/injection, schedule: Q01DX011 (ip), vehicle: carboxymethylcellulose (CMC)); 132 % of control [9 of 10 alive] (dose: 147.25 mg/kg/injection, schedule: Q01DX011 (ip), vehicle: carboxymethylcellulose (CMC)); 126 % of control [9 of 10 alive] (dose: 383.4 mg/kg/injection, schedule: Q01DX011 (ip), vehicle: carboxymethylcellulose (CMC)). Also, the survivor count is, setting by setting: (dose: 294.5 mg/kg/injection, schedule: Q01DX011 (ip), vehicle: carboxymethylcellulose (CMC)) 9 of 18; (dose: 450.0 mg/kg/injection, schedule: Q01DX011 (ip), vehicle: carboxymethylcellulose (CMC)) 6 of 10; (dose: 573.9 mg/kg/injection, schedule: Q01DX011 (ip), vehicle: carboxymethylcellulose (CMC)) 2 of 10; (dose: 589.0 mg/kg/injection, schedule: Q01DX011 (ip), vehicle: carboxymethylcellulose (CMC)) 1 of 10 and 6 of 10; (dose: 590.0 mg/kg/injection, schedule: Q01DX011 (ip), vehicle: carboxymethylcellulose (CMC)) 5 of 9.

Regarding `CS(=O)(=O)OCC1OC(OCc2ccccc2)CC1O` (stereo not drawn), the T/C is 125 % of control (dose: 75.0 mg/kg/injection, schedule: Q01DX011 (ip), vehicle: saline) and 137 % of control (dose: 225.0 mg/kg/injection, schedule: Q01DX011 (ip), vehicle: saline).

For `CSc1nc(Cl)cc2nc(Cl)cn12`, the survivor count reads like this: (dose: 120.0 mg/kg/injection, schedule: Q01DX011 (ip), vehicle: carboxymethylcellulose (CMC)) 5 of 10; (dose: 240.0 mg/kg/injection, schedule: Q01DX011 (ip), vehicle: carboxymethylcellulose (CMC)) 0 of 10.

For the molecule `Cc1ccccc1N(C=O)c1ccccc1C`, the T/C (dose: 125.0 mg/kg/injection, schedule: Q01DX011 (ip), vehicle: methylcellulose (MC)) was 127 % of control.

In the case of `CC(=O)OCC1CCCC(n2cnc3c(Cl)ncnc32)O1` (stereo not drawn), the survivor count (dose: 500.0 mg/kg/injection, schedule: Q01DX011 (ip), vehicle: methylcellulose (MC)) is on record as 2 of 10.

For the molecule `CCc1c(Cl)nc(N)nc1Nc1ccc(Br)cc1`, the T/C (dose: 15.0 mg/kg/injection, schedule: Q01DX011 (ip), vehicle: methylcellulose (MC)) was 131 % of control [8 of 10 alive].

With `CCC1OCC(C(Cl)CCl)O1` (stereo not drawn), where the note is “dose: 450.0 mg/kg/injection, schedule: Q01DX011 (ip), vehicle: methylcellulose (MC)”, the survivor count is given as 5 of 10.

On to `CCCCNc1ncnc2c1cnn2C`, for which the survivor count is 5 of 10 (dose: 62.5 mg/kg/injection, schedule: Q01DX011 (ip), vehicle: carboxymethylcellulose (CMC)); 0 of 10 (dose: 125.0 mg/kg/injection, schedule: Q01DX011 (ip), vehicle: carboxymethylcellulose (CMC)); 0 of 10 (dose: 250.0 mg/kg/injection, schedule: Q01DX011 (ip), vehicle: carboxymethylcellulose (CMC)).

As to `CC(CNC(=O)CCBr)CNC(=O)CCBr`, the survivor count (dose: 225.0 mg/kg/injection, schedule: Q01DX011 (ip), vehicle: carboxymethylcellulose (CMC)) is 6 of 10.

With `O=S=Nc1ccccc1`, for the setting “dose: 350.0 mg/kg/injection, schedule: Q01DX011 (ip), vehicle: carboxymethylcellulose (CMC)”, the survivor count is 4 of 10.

Consider `CCCN1CCC(=O)NC1=S`, for which the survivor count (dose: 250.0 mg/kg/injection, schedule: Q01DX011 (ip), vehicle: methylcellulose (MC)) is on record as 6 of 10.

Take `Nc1nc(=S)c2[nH]cnc2[nH]1`: the T/C reads like this: (dose: 0.05 mg/kg/injection, schedule: Q01DX011 (ip), vehicle: methylcellulose (MC)) 33, 48 [8 of 10 alive], 58, 59, 75 (2×), 76, 76 [9 of 10 alive], 77 [8 of 10 alive], 78, 81 [9 of 10 alive], 85 [9 of 10 alive], 104 % of control; (dose: 0.1 mg/kg/injection, schedule: Q01DX011 (ip), vehicle: methylcellulose (MC)) 29 [9 of 10 alive], 39 [9 of 10 alive], 44 [9 of 10 alive], 47, 48, 48 [8 of 10 alive], 48 [9 of 10 alive], 49, 50, 55, 59, 61 [9 of 10 alive], 63 [9 of 10 alive] (2×), 67, 68 [9 of 10 alive], 69, 71, 74, 74 [9 of 10 alive], 98, 109, 120 % of control [9 of 10 alive]; (dose: 0.5 mg/kg/injection, schedule: Q01DX011 (ip), vehicle: methylcellulose (MC)) 1 [9 of 10 alive], 2 (2×), 4, 4 [9 of 10 alive], 5 [8 of 10 alive], 7 (3×), 7 [8 of 10 alive], 7 [9 of 10 alive], 8 (2×), 10 [9 of 10 alive], 12, 12 [8 of 10 alive], 12 [9 of 10 alive], 13, 13 [8 of 10 alive], 15, 18 [9 of 10 alive], 19, 26 [9 of 10 alive], 36, 44 % of control [9 of 10 alive]; under setting [1], 1, 2, 3 [8 of 10 alive], 3 [9 of 10 alive] (2×), 4 (3×), 5 (3×), 5 [9 of 10 alive], 6 (2×), 6 [7 of 10 alive], 6 [8 of 10 alive] (2×), 6 [9 of 10 alive] (2×), 7 [9 of 10 alive] (2×), 8, 11 [9 of 10 alive], 14 % of control; under setting [2], 3 [8 of 10 alive] (2×), 4, 4 % of control [7 of 10 alive]; under setting [3], 1 [7 of 10 alive] (2×), 2, 2 [7 of 10 alive], 2 [8 of 10 alive], 2 [9 of 10 alive], 3 [7 of 10 alive], 7 % of control [8 of 10 alive]. Moreover, the survivor count reads like this: under setting [1], 6 of 10; (dose: 2.0 mg/kg/injection, schedule: Q01DX011 (ip), vehicle: carboxymethylcellulose (CMC)) 2 of 10; under setting [2], 2 of 10, 4 of 10, 6 of 10; under setting [3], 1 of 10, 2 of 10, 3 of 10, 4 of 10, 5 of 10, 5 of 9, 6 of 10; (dose: 4.0 mg/kg/injection, schedule: Q01DX011 (ip), vehicle: methylcellulose (MC)) 1 of 10; (dose: 4.0 mg/kg/injection, schedule: Q01DX011 (ip), vehicle: saline) 6 of 10. Further, the survivor count is recorded as 1 of 10, 2 of 10, 3 of 10, 4 of 10, 5 of 10 (dose: 5.0 mg/kg/injection, schedule: Q01DX011 (ip), vehicle: methylcellulose (MC)) and 6 of 10 (dose: 8.0 mg/kg/injection, schedule: Q01DX011 (ip), vehicle: saline).

Regarding `S=c1nc[nH]c2c1ncn2C1CCCCC1`, the T/C (dose: 47.0 mg/kg/injection, schedule: Q01DX011 (ip), vehicle: carboxymethylcellulose (CMC)) was 53, 82 [9 of 10 alive], 97, 102 % of control; the T/C (dose: 94.0 mg/kg/injection, schedule: Q01DX011 (ip), vehicle: carboxymethylcellulose (CMC)) was 75 [8 of 10 alive], 82, 98, 102 % of control [9 of 10 alive]; the T/C (dose: 94.0 mg/kg/injection, schedule: Q01DX011 (oral), vehicle: carboxymethylcellulose (CMC)) was 142 % of control; the T/C (dose: 188.0 mg/kg/injection, schedule: Q01DX011 (ip), vehicle: carboxymethylcellulose (CMC)) was 81, 82, 86, 117 % of control; the T/C (dose: 376.0 mg/kg/injection, schedule: Q01DX011 (ip), vehicle: carboxymethylcellulose (CMC)) was 71 [9 of 10 alive], 79, 105, 109 % of control [8 of 10 alive].

As to `COc1cc(C(=O)O)nc(N)n1`, the T/C (dose: 31.0 mg/kg/injection, schedule: Q01DX011 (ip), vehicle: saline) is 135 % of control and the T/C (dose: 62.0 mg/kg/injection, schedule: Q01DX011 (ip), vehicle: saline) was 145 % of control [9 of 10 alive].

As to `CC(C)=NOC(N)=O`, the T/C (dose: 50.0 mg/kg/injection, schedule: Q01DX011 (ip), vehicle: water) was 137 % of control.

On to `Nc1c(Br)cc2c(c1Br)Cc1cc(Br)ccc1-2`, for which the survivor count runs as follows: (dose: 60.0 mg/kg/injection, schedule: Q01DX006 (iv), vehicle: saline) 0 of 10; (dose: 120.0 mg/kg/injection, schedule: Q01DX006 (iv), vehicle: saline) 0 of 10; (dose: 240.0 mg/kg/injection, schedule: Q01DX006 (iv), vehicle: saline) 0 of 10; (dose: 480.0 mg/kg/injection, schedule: Q01DX006 (iv), vehicle: saline) 0 of 10.

Values taken from PubChem BioAssay AID180 (DTP/NCI, 2004).
